Measurements from publication PMC7862700.
The other results are listed elsewhere or left out. The source does not settle which construct or isoform was used.

Biological target: T1, ELF2 (UniProt Q15723)
T1 sequence: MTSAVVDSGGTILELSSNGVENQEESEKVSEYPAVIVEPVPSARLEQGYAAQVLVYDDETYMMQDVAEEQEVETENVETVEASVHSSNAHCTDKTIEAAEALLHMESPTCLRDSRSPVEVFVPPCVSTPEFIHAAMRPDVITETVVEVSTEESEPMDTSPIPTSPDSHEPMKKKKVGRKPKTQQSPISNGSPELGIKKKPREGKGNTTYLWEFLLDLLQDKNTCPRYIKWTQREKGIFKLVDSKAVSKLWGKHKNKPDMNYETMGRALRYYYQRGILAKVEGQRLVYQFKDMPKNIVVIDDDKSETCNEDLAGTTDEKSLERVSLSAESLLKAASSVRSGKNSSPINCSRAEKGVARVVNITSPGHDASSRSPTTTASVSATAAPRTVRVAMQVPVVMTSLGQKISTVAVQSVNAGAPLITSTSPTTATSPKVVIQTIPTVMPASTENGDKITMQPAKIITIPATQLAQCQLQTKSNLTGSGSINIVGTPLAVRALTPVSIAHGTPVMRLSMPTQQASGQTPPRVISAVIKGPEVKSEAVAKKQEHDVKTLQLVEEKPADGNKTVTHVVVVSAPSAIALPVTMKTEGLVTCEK
Test: DAPPL (digital affinity profiling via proximity ligation, sequencing)
Settings: 10 mM Tris-HCl pH 7.5, 50 mM NaCl, 1 mM DTT, 4% glycerol, room temperature, 30 min; GST-TFs on glutathione beads, 16-mer random dsDNA library, 0.1% …; high values mean tight binding; double strand, one strand shown; scale: fold enrichment (6-mer frequency, TF over GST control)

Q: How did the binding signal turn out when AGTACT was run?
A: Its binding signal is 1.25.

Q: How did the binding signal turn out when GATCCC was run?
A: The binding signal was 1.15.

Q: Which binding signal does the source give for TTGGTT here?
A: The binding signal was 1.39.

Q: For TCCAGT, which binding signal is on record?
A: The binding signal was 0.649.

Q: How did the binding signal turn out when CCGAGC was run?
A: The binding signal was 1.05.

Q: Which binding signal does the source give for CAAATC here?
A: Its binding signal is 1.08.

Q: How did the binding signal turn out when AACACT was run?
A: The binding signal was 1.29.

Q: For ATCTGG, which binding signal is on record?
A: Its binding signal is 1.14.

Q: For TAGTAT, which binding signal is on record?
A: Its binding signal is 1.24.

Q: CAACTA was tested. Which binding signal did it give?
A: The binding signal was 1.29.

Q: For ACGTAT, which binding signal is on record?
A: Its binding signal is 1.2.

Q: Which binding signal does the source give for AATGGT here?
A: The binding signal was 1.34.

Q: For GGAACT, which binding signal is on record?
A: The binding signal was 2.35.

Q: For TTCGCT, which binding signal is on record?
A: The binding signal was 1.19.

Q: GTTAAT was tested. Which binding signal did it give?
A: The binding signal was 1.11.

Q: How did the binding signal turn out when TTTTTC was run?
A: The binding signal was 1.28.

Q: How did the binding signal turn out when CCGCTT was run?
A: The binding signal was 2.12.

Q: For TGATAG, which binding signal is on record?
A: Its binding signal is 0.976.

Q: With ATTAGA as the sequence, how does the binding signal read?
A: The binding signal was 0.869.

Q: With GTTACT as the sequence, how does the binding signal read?
A: Its binding signal is 1.23.

Q: For TATGCT, which binding signal is on record?
A: Its binding signal is 1.25.

Q: CAAGAA was tested. Which binding signal did it give?
A: Its binding signal is 1.03.

Q: For CAATAC, which binding signal is on record?
A: Its binding signal is 1.27.

Q: GCTCTA was tested. Which binding signal did it give?
A: The binding signal was 1.11.

Q: AACATT was tested. Which binding signal did it give?
A: Its binding signal is 1.26.

Q: For ACGCTA, which binding signal is on record?
A: Its binding signal is 1.1.

Q: How did the binding signal turn out when TTCGGC was run?
A: Its binding signal is 1.02.

Q: How did the binding signal turn out when GGGATT was run?
A: Its binding signal is 0.875.

Q: How did the binding signal turn out when AGCTAT was run?
A: The binding signal was 1.12.

Q: For TAATTA, which binding signal is on record?
A: The binding signal was 1.28.

Q: ATAATG was tested. Which binding signal did it give?
A: Its binding signal is 1.09.

Q: TGATCC was tested. Which binding signal did it give?
A: The binding signal was 1.27.

Q: How did the binding signal turn out when TATACG was run?
A: Its binding signal is 1.27.

Q: How did the binding signal turn out when AAACTC was run?
A: The binding signal was 1.19.

Q: For GTGCTA, which binding signal is on record?
A: The binding signal was 1.07.

Q: For TAAGGG, which binding signal is on record?
A: Its binding signal is 0.924.

Q: For AATAGT, which binding signal is on record?
A: Its binding signal is 1.23.

Q: How did the binding signal turn out when GAGAAA was run?
A: Its binding signal is 0.675.

Q: With TATACA as the sequence, how does the binding signal read?
A: The binding signal was 1.35.

Q: How did the binding signal turn out when TAAAGC was run?
A: Its binding signal is 1.04.
